Measured values: CN117069840A
Results are given in words; binding and its absence hold for the method and conditions named. Some binding calls cover weakened binding; strength is not graded here.

Protein sequences, listed by entry. Tags and fused reporters are not part of them. Residues count along the entry.
UniProt Q9HBE4, residues 30-162: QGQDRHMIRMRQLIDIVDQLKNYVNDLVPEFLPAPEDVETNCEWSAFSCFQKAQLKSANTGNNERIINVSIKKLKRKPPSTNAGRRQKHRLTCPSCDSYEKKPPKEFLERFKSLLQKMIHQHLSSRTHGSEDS

B1: 抗体3G6D7 (antibody, V domains shown)
VH: EIQLQQSGPELVKPGASVKVSCKASGYGFTSYNMNWVKQSHGKSLEWIGYIDPYNGGSGYNQKFKGKATLTVDKSSSTAYMHLISLTSDDSAVYYCARGDYDGGYYGMDYWGQGTSVTVSS
VL: DILLTQSPAILSVSPGESVSFSCRASQSVGTSIHWFQQRTNGSPRLLIKYASESISGIPSRFSGSGSGTDFTLIINSVESEDIADYYCQQSNGWPFTFGSGTKLEIK
B2: 抗体13A6G6 (antibody, V domains shown)
VH: EVKLEESGGGLVQPGGSTKLSCAASGFTFSDAWMNWVRQSPEKGLEWIAEIRTKTSNHAAYYAASVKGRFTISRDDSKSSVYLQMNSLRPEDTGIYYCTRFDYWGQGTTLTVSS
VL: DVQITQSPSYLAASPGETITINCRASKNINKHLAWYHDKPGKTNKLLIYSGSTLQSGTPSRFSGSGSGTDFTLTISSLEPEDFAVYYCQQHNEYPYTFGGGTKLAIK

What was measured:
人IL-21蛋白 (human) [1] = target: 人IL-21蛋白 (human) (UniProt Q9HBE4); assay: indirect ELISA, IL-21 coated at 1 μg/mL, hybridoma supernatant
人IL-21蛋白 (human) [2] = target: 人IL-21蛋白 (human) (UniProt Q9HBE4); assay: double-antibody sandwich ELISA paired with 13A6G6
人IL-21蛋白 (human) [3] = target: 人IL-21蛋白 (human) (UniProt Q9HBE4); assay: double-antibody sandwich ELISA paired with 3G6D7

Row | Binder | binding (人IL-21蛋白 (human) [1]) | binding (人IL-21蛋白 (human) [2]) | binding (人IL-21蛋白 (human) [3])
1 | B1 | binds | binds | –
2 | B2 | binds | – | binds
